# Experimental data reported in publication PMC5996148.
# Values joined by “and” are separate entries in the source; they are usually repeats but may differ in a detail not shown here. Equal entries are not always repeated. The list shows a part of the results. For some assays here: The source does not settle which construct or isoform was used.
# What was measured:
# Experiment in all cases: protein microarray (ProtoArray v5.0), streptavidin-Alexa Fluor 647
# Settings in all cases: 3'-biotin; 20 mM Tris (pH 7.5), 5 mM MgCl2, 100 mM KCl, 0.1% Tween-20, A/T-rich and random oligonucleotide blockers; temperature not stated; high values mean tight binding
# LSM4 = target: T1, LSM4 (UniProt Q9Y4Z0)
# T1 sequence: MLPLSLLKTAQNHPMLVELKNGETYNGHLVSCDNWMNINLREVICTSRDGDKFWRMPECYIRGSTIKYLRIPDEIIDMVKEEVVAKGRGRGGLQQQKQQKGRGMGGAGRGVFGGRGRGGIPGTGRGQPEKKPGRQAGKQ
# LSM8 (human) = tested on: LSM8 (human)
# LST1 (human) = tested on: LST1 (human)
# LTB (human) = tested on: LTB (human)
# LXN (human) = tested on: LXN (human)
# LY6E (human) = tested on: LY6E (human)
# LY6G6C (human) = tested on: LY6G6C (human)
# LYG2 = target: T2, LYG2 (UniProt Q86SG7)
# T2 sequence: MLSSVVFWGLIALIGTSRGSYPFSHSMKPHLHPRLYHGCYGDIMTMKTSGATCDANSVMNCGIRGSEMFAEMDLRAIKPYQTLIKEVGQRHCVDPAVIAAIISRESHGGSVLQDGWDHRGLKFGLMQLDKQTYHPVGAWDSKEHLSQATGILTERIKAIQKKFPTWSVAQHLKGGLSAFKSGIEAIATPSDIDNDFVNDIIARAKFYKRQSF
# LYNX1 (human) = tested on: LYNX1 (human)
# LYPD1 (human) = tested on: LYPD1 (human)
# LYPLA2 (human) = tested on: LYPLA2 (human)
# LYPLAL1 (human) = tested on: LYPLAL1 (human)
# LYRM5 (human) = tested on: LYRM5 (human)
# LYSMD2 (human) = tested on: LYSMD2 (human)
# LYSMD3 (human) = tested on: LYSMD3 (human)
# LYZL1 (human) = tested on: LYZL1 (human)
# LYZL2 (human) = tested on: LYZL2 (human)
# LYZL6 (human) = tested on: LYZL6 (human)
# LZIC (human) = tested on: LZIC (human)
# LZTR2 (human) = tested on: LZTR2 (human)
sequence,measurement,setting,value
GGGAGGCTGAGGCAGG [G4-1 biotinylated (PQS2)],binding signal,LSM4,3.24 z-score
same,binding signal,LSM8 (human),-0.343 z-score and -0.3 z-score
same,binding signal,LST1 (human),-0.275 z-score
same,binding signal,LTB (human),-0.347 z-score
same,binding signal,LXN (human),-0.343 z-score
same,binding signal,LY6E (human),-0.339 z-score
same,binding signal,LY6G6C (human),-0.327 z-score
same,binding signal,LYG2,-0.245 z-score
same,binding signal,LYNX1 (human),-0.335 z-score
same,binding signal,LYPD1 (human),-0.338 z-score
same,binding signal,LYPLA2 (human),-0.314 z-score
same,binding signal,LYPLAL1 (human),-0.35 z-score
same,binding signal,LYRM5 (human),-0.309 z-score
same,binding signal,LYSMD2 (human),-0.354 z-score
same,binding signal,LYSMD3 (human),-0.342 z-score
same,binding signal,LYZL1 (human),-0.278 z-score
same,binding signal,LYZL2 (human),-0.327 z-score
same,binding signal,LYZL6 (human),-0.342 z-score
same,binding signal,LZIC (human),-0.362 z-score
same,binding signal,LZTR2 (human),-0.281 z-score

# Laid out differently: entries from further up
sequence	measurement	setting	value
GGGAGGCTGAGGCAGG [G4-1 biotinylated (PQS2)]	binding signal	LYSMD3 (human)	-0.342 z-score
same	binding signal	LYZL2 (human)	-0.327 z-score
